Experimental data from PubChem BioAssay AID1794845 (National Center for Advancing Translational Sciences (NCATS), 2023).
The campaign covered roughly 6,900 compounds. Fewer than 10 were called active. The call rests on the fitted dose curve; in most records, active means well fitted curve in the direction sought with a large enough effect; inconclusive means small, poorly fitted or top-dose-only effect, or another doubt; inactive means no such curve, though single readings can be large or run the other way. Some of the results follow.

By UniProt entry, the sequences of proteins in these tests, tags left out. Where a name states a change or a piece, a line headed by the entry shows the natural chain unless it says otherwise.
UniProt C7C422: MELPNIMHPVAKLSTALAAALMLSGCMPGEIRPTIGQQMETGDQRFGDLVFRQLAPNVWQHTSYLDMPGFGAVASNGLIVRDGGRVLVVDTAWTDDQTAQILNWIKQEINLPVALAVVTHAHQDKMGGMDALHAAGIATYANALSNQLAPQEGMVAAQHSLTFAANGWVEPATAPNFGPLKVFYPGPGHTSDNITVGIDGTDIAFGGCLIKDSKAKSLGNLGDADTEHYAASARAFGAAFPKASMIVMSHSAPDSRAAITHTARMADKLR

Target: Metallo-beta-lactamase type 2 (Klebsiella pneumoniae) (UniProt C7C422)
Assay: qHTS to identify inhibitors of the New Delhi Metallo-beta-lactamase (NDM): primary screen against the NCATS Gemini Collection; further: % of control where 0% means no effect
Details: NDM-1 enzyme, meropenem hydrolysis, absorbance 300 nm; at 38.4 µM (top of the series) unless noted
Summary of the method: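 NDM-1 at 2 nM final in 50 mM HEPES pH 7.0, 1 uM ZnSO4, 0.01% Tween20, preincubated >30 min with compound. Meropenem 50 uM final added; absorbance at 300 nm after 30 min.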

Question: Which activity % (negative = inhibition) does the source give for `C[C@]1(CO)[C@H]2Cc3sc(-c4ccsc4)nc3[C@@H](CC(=O)Nc3cccc(O)c3)[C@]2(C)CC[C@H]1O` here?
Answer: The activity % (negative = inhibition) was inactive: 10.8%.

Question: How did the activity % (negative = inhibition) turn out when `O=C(N[C@H]1CO[C@H]2[C@@H]1OC[C@@H]2Nc1nccc(-c2ccc(-c3ccccc3)cc2)n1)C1CCCCC1` was run?
Answer: The activity % (negative = inhibition) was inactive: 33.3%.

Question: With `COc1ccc(NC(=O)N2CC(N(CC(C)C)C3CCOCC3)C2)cc1F` as the compound, how does the activity % (negative = inhibition) read?
Answer: Its activity % (negative = inhibition) is inactive: 0.874%.

Question: `COc1ccc(-c2ccc(NC(=O)C3CCCC3)cc2)nn1` was tested. Which activity % (negative = inhibition) did it give?
Answer: The activity % (negative = inhibition) was inactive: 10.9% [at 57.5 µM].

Question: With `COc1ccc(CN2CCCC(CNC(=O)NC(C)C)C2)cc1O` (stereo not drawn) as the compound, how does the activity % (negative = inhibition) read?
Answer: Its activity % (negative = inhibition) is inactive: -3.37%.

Question: How did the activity % (negative = inhibition) turn out when `O=C([C@@H]1CNC[C@H](C(=O)N2CCN(c3ccncc3)CC2)C1)N1CCOCC1` was run?
Answer: The activity % (negative = inhibition) was inactive: 14.4%.

Question: `OC[C@@H]1CNC[C@H]1C1CCN(C2CNC2)CC1` was tested. Which activity % (negative = inhibition) did it give?
Answer: The activity % (negative = inhibition) was inactive: 38.8%.

Question: For `COCC(=O)N1CCN(CC(=O)NCc2cccs2)[C@H]2CS(=O)(=O)C[C@H]21`, which activity % (negative = inhibition) is on record?
Answer: The activity % (negative = inhibition) was inactive: 2.71%.

Question: With `Cc1nn(C)c(C)c1CN(Cc1ccnc2ccccc12)C1CC1` as the compound, how does the activity % (negative = inhibition) read?
Answer: Its activity % (negative = inhibition) is inactive: 5.38%.

Question: How did the activity % (negative = inhibition) turn out when `Cc1nc2c(c(-c3ccc(Cl)cc3)n1)CCN(C(=O)N(C)C)CC2` was run?
Answer: The activity % (negative = inhibition) was inactive: 17.6%.

Question: How did the activity % (negative = inhibition) turn out when `O=C(C[C@@H]1CCNC[C@@H]1Cc1cc(CN2CCCCC2)on1)N1CCN(c2ccccc2)CC1` was run?
Answer: The activity % (negative = inhibition) was inactive: 8.74%.

Question: Which activity % (negative = inhibition) does the source give for `O=[S+]([O-])(c1cccs1)N1CCn2c(nnc2C2CC2)C1` here?
Answer: The activity % (negative = inhibition) was inactive: 7.72% [at 57.5 µM].

Question: How did the activity % (negative = inhibition) turn out when `O=C(Cn1cccc1-c1nc(-c2ccccc2)no1)N1CCc2ccccc21` was run?
Answer: Its activity % (negative = inhibition) is inactive: 0.577%.

Question: `O=C(CC(c1ccccc1)c1ccccc1Cl)N1CCOCC1` (stereo not drawn) was tested. Which activity % (negative = inhibition) did it give?
Answer: The activity % (negative = inhibition) was inactive: 0.0971%.

Question: For `Cc1ccccc1N(C)C1CN([S+](=O)([O-])c2ccccc2)C1`, which activity % (negative = inhibition) is on record?
Answer: The activity % (negative = inhibition) was inactive: -11.3%.

Question: With `COc1ccc(-c2cnc(NC(=O)Cc3ccc(F)cc3)c3c2CCO3)cn1` as the compound, how does the activity % (negative = inhibition) read?
Answer: Its activity % (negative = inhibition) is inactive: 15.6% [at 57.5 µM].

Question: For `Cc1ncsc1CCC(=O)N1CC[C@@H]2[C@@H](CCC(=O)N2CCN)C1`, which activity % (negative = inhibition) is on record?
Answer: Its activity % (negative = inhibition) is inactive: 5.84%.

Question: How did the activity % (negative = inhibition) turn out when `O=C(C1CCCN([S+](=O)([O-])c2cccs2)C1)N1CCC(c2nc3ncccc3[nH]2)CC1` (stereo not drawn) was run?
Answer: Its activity % (negative = inhibition) is inactive: 1.08%.

Question: `COCCNS(=O)(=O)c1cc(C(=O)O)cc(-c2ccncc2)c1` was tested. Which activity % (negative = inhibition) did it give?
Answer: Its activity % (negative = inhibition) is inactive: 5.26%.

Question: Which activity % (negative = inhibition) does the source give for `COc1ccccc1C(CC(=O)NCC(C)C)c1cn(C)c2ccccc12` (stereo not drawn) here?
Answer: Its activity % (negative = inhibition) is inactive: 5.61%.

Question: With `Cc1nn(C)cc1CN(C)C(=O)c1cc2cn(C(C)C)cc2s1` as the compound, how does the activity % (negative = inhibition) read?
Answer: Its activity % (negative = inhibition) is inactive: 2.7%.

Question: With `COc1ccc(-c2cc3nc4c(c(=O)n3[nH]2)CN(S(=O)(=O)c2cccs2)CC4)cc1` as the compound, how does the activity % (negative = inhibition) read?
Answer: The activity % (negative = inhibition) was inactive: 19.4%.

Question: How did the activity % (negative = inhibition) turn out when `Cc1noc(C)c1S(=O)(=O)N1CCC2(C1)C(=O)N(c1ccccc1)c1ccccc12` (stereo not drawn) was run?
Answer: The activity % (negative = inhibition) was inactive: -3.2%.
